Measurements reported in PubChem BioAssay AID1053208 (Peter MacCallum Cancer Centre, 2014).

Assay: 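Synthetic lethal interactions between gene loss and doxorubicin in osteosarcoma cells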 (primary screen)
Cells: mouse osteosarcoma cells, early-passage culture from an engineered mouse model of fibroblastic bone tumour
Knock-down reagent: siRNA pool against mouse genes, 40 nM
Timing: about 120 h (48 h before drug, then 72 h with drug)
Challenge: doxorubicin 100 nM for 72 h, roughly 30-40% inhibitory dose
Read-out: 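Luminescent ATP signal taken as viability with or without 100 nM doxorubicin for 72 h; mean of two wells set against non-targeting siRNA and turned into robust z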
Reading the numbers: viability z-score with doxorubicin: higher = more viable cells under doxorubicin; viability z-score without drug: higher = more viable cells with knock-down alone
Active means: 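a pool counts as active when its viability z-score with doxorubicin is -2 or below and its z-score without drug lies between -2 and 2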
In all, the deposit lists about 17,000 reagents; this is a part drawn at random. Over the whole deposit, 788 (4.7%) are marked active. 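Calls rest on z-score classes alone; an extra cut-off of viability at most 70% of control was not applied to them.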 Entries without a mark were called inactive. Not all columns of the deposit are shown. No sequences are given here.

For Ptdss1, the values are combined z-score class no change with or without drug; viability z-score with doxorubicin 1.35; viability z-score without drug 0.34.
Depletion of Spmip5 came out at: combined z-score class no change with or without drug; viability z-score with doxorubicin -0.22; viability z-score without drug 0.67.
Knock-down of Airn resulted in: combined z-score class no change with or without drug; viability z-score with doxorubicin -0.56; viability z-score without drug -0.84.
Silencing of Vmn1r183 gave: combined z-score class low cell count with doxorubicin only (active); viability z-score with doxorubicin -2.59; viability z-score without drug 1.01.
Mef2b scored combined z-score class no change with or without drug; viability z-score with doxorubicin -0.34; viability z-score without drug 0.17.
Knock-down of Dnttip1 gave: combined z-score class no change with or without drug; viability z-score with doxorubicin 1.12; viability z-score without drug 0.34.
Or8b1c scored combined z-score class no change with or without drug; viability z-score with doxorubicin -0.22; viability z-score without drug 1.01.
Sftpb gave combined z-score class no change with or without drug; viability z-score with doxorubicin 1.01; viability z-score without drug -0.34.
Zc3hav1l showed combined z-score class no change with or without drug; viability z-score with doxorubicin -1.12; viability z-score without drug 1.01.
Knock-down of Fam117a resulted in: combined z-score class no change with or without drug; viability z-score with doxorubicin -0.9; viability z-score without drug 0.84.
Silencing of BC051665 gave: combined z-score class low cell count without drug only; viability z-score with doxorubicin -0.9; viability z-score without drug -2.53.
Against Igfals, the entry reads combined z-score class no change with or without drug; viability z-score with doxorubicin 0.45; viability z-score without drug 0.51.
Silencing of Cypt3 resulted in: combined z-score class low cell count without drug only; viability z-score with doxorubicin -0.9; viability z-score without drug -2.19.
Knock-down of Rida resulted in: combined z-score class no change with or without drug; viability z-score with doxorubicin 1.8; viability z-score without drug 0.84.
After knock-down of Grin3b the results were combined z-score class no change with or without drug; viability z-score with doxorubicin 1.01; viability z-score without drug -0.17.
Knock-down of Phf5a resulted in: combined z-score class low cell count with and without drug; viability z-score with doxorubicin -6.74; viability z-score without drug -3.71.
Dkk3 gave combined z-score class no change with or without drug; viability z-score with doxorubicin -0.34; viability z-score without drug 1.18.
Gpat4 scored combined z-score class no change with or without drug; viability z-score with doxorubicin 0; viability z-score without drug -0.34.
Silencing of Zkscan8 came out at: combined z-score class high cell count with doxorubicin only; viability z-score with doxorubicin 2.25; viability z-score without drug 0.84.
After knock-down of Magea7-ps, the screen gave combined z-score class no change with or without drug; viability z-score with doxorubicin -1.8; viability z-score without drug -1.18.
Against Gipc3, the entry reads combined z-score class no change with or without drug; viability z-score with doxorubicin 1.46; viability z-score without drug 1.18.
Silencing of C230013L11Rik gave: combined z-score class no change with or without drug; viability z-score with doxorubicin -0.56; viability z-score without drug -0.84.
For Tmem144 the deposit lists combined z-score class no change with or without drug; viability z-score with doxorubicin 0.45; viability z-score without drug -0.84.
After knock-down of Slc37a3, the screen gave combined z-score class no change with or without drug; viability z-score with doxorubicin -1.57; viability z-score without drug -1.35.
After knock-down of Ddx51 the results were combined z-score class low cell count without drug only; viability z-score with doxorubicin -1.8; viability z-score without drug -3.04.
After knock-down of Mybpc3, the record shows combined z-score class no change with or without drug; viability z-score with doxorubicin 0.67; viability z-score without drug 1.18.
With knock-down of Slc22a15, the screen gave combined z-score class no change with or without drug; viability z-score with doxorubicin -0.11; viability z-score without drug 1.85.
For Clec5a, the values are combined z-score class no change with or without drug; viability z-score with doxorubicin -0.9; viability z-score without drug -0.51.

3 entries from above, ordered by “viability z-score without drug”, high to low.
Gipc3 → combined z-score class: no change with or without drug; viability z-score with doxorubicin: 1.46; viability z-score without drug: 1.18
Zkscan8 → combined z-score class: high cell count with doxorubicin only; viability z-score with doxorubicin: 2.25; viability z-score without drug: 0.84
Magea7-ps → combined z-score class: no change with or without drug; viability z-score with doxorubicin: -1.8; viability z-score without drug: -1.18
